# Some of the results follow. Shown are side measurements of this screen, not its main read-out; they come without a call. The list favours compounds with an active or inconclusive main result. The note in brackets gives the kind of curve behind each potency; many fits are weak.
# Experiment: qHTS Assay for Lipid Storage Modulators in Drosophila S3 Cells;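 as to cell number change: cells counted by Cell Tracker Red CMTPX staining in the red channel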
# Details: BODIPY lipid droplet fluorescence, 18-24 h; for cell number change: measured here: cell count max response, cells fed with added oleic acid
# Method in brief: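 Drosophila S3 cells got compounds at several concentrations plus oleic acid (400 uM solution). Laser-scanning cytometry with 488 nm excitation read lipid droplets at 500-530 nm and cells at 575-640 nm. Percent activity was relative to 20 uM Triacsin C.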
# [1] = measured here: cell number channel AC50, cells fed with added oleic acid
# [2] = measured here: lipid fluorescence (Fed channel) AC50, cells fed with added oleic acid
SMILES,cell number change,AC50 [1],AC50 [2]
CC1Cc2ccccc2N1C(=O)CSc1nnnn1Cc1ccccc1 (centres undefined),-17.8%,"0.00411 µM [falling, full curve, poor fit]",
Cc1ccc(C)c(OCCOCCN2CC(C)OC(C)C2)c1C (centres undefined),163%,,
Cc1ccc(NC(=O)COC(=O)C2C3CC4OC(=O)C2C4C3)cc1Cl (centres undefined),15.8%,,"5.62 µM [falling, single point]"
CCCn1c(CCC(=O)O)ccc1-c1ccc(OC)cc1,-25.8%,"0.291 µM [falling, full curve, poor fit]","1.64 µM [falling, full curve, poor fit]"
CN(C)C(=O)N1CCN(S(=O)(=O)c2ccc3ccccc3c2)CC1,7.04%,,"14.6 µM [falling, single point]"
COc1ccc(C(F)(F)F)cc1NC(=O)c1nc2nc(C)cc(C(F)F)n2n1,,,"0.259 µM [falling, partial curve, poor fit]"
Cn1c(NC(=O)c2ccco2)c(-c2ccc(Cl)cc2)c(=O)c2ccccc21,,,"6.51 µM [falling, single point]"
COc1ccc(C=C2C=C(C(C)(C)C)C(=O)C(C(C)(C)C)=C2)cc1OC,-47%,"10.3 µM [falling, partial curve, poor fit]",
C=CCn1c(SCC(=O)N2CCN(c3ccccc3)CC2)nnc1-c1ccco1,77.7%,"20.6 µM [rising, partial curve]","20.6 µM [rising, partial curve]"
O=C(CC(=O)c1ccccc1)Nc1cccnc1,-26.3%,,"2.59 µM [falling, single point]"
CCc1sc(C(=O)N2CCN(S(C)(=O)=O)CC2)cc1Br,,"0.58 µM [falling, single point]","0.58 µM [falling, single point]"
Cc1cccc(OCC(=O)N/N=C/c2cn[nH]c2-c2ccc(Cl)c(Cl)c2)c1,-14.4%,,"29.1 µM [falling, single point]"
CCCCN(CCCC)Cc1ccc(C(=O)NNC(=O)Nc2ccc(F)cc2)o1,35.9%,,"0.103 µM [falling, partial curve, poor fit]"
Cc1nn(C)cc1NC(=O)c1ccc(Br)o1,5.22%,,"16.4 µM [rising, single point]"
COCCn1c(=O)[nH]c2cc(C(=O)OC)ccc2c1=O,16.6%,"0.58 µM [rising, partial curve, poor fit]",
CCN(C(=O)c1cc(S(=O)(=O)N2CCCCC2)c[nH]1)c1ccc(OC)cc1,28.7%,,"29.1 µM [rising, single point]"
O=c1sc2ccccc2n1COc1ccc(Cl)cc1,59.6%,"25.9 µM [rising, single point]","0.731 µM [rising, full curve]"
COC(=O)c1ccc(CN2CCC(n3nccc3NC(=O)C3CCCC3)CC2)cc1,28.6%,,"16.4 µM [rising, partial curve, poor fit]"
CC(=O)Nc1ccc(S(=O)(=O)c2ccc([N+](=O)[O-])cc2)cc1,-26.1%,,

SMILES,cell number change,AC50 [1],AC50 [2]
O=C(NCc1ccco1)c1cc(-c2ccccc2)c(N2CCOCC2)s1,2.61%,,"2.31 µM [rising, partial curve]"
COc1ccc(-c2nnc3cccc(Cl)n23)c(OC)c1,13.6%,,"25.9 µM [falling, partial curve]"
CCOc1ccc(S(=O)(=O)N2CCN(C(=O)CCC(=O)N3CCOCC3)CC2)cc1,6.74%,,"32.6 µM [falling, single point]"
COCCN(C(=O)Nc1ccc(OC)cc1OC)C1CCN(C(C)C)CC1,,"4.11 µM [falling, partial curve]",
CC(=O)CSc1nnc(C(F)(F)F)n1C,-20.1%,,"32.6 µM [falling, single point]"
CCN1C(=O)/C(=C/c2cc(C)n(C)c2C)SC1=Nc1ccc(OC)cc1,0.551%,"6.51 µM [rising, single point]","6.51 µM [rising, single point]"
COc1ccc(-c2cc(-n3c(C(F)(F)F)nc4ccccc43)n(CCC#N)n2)cc1,-27.1%,,"16.4 µM [falling, single point]"
O=C1C2C3C=CC(C4CC34)C2C(=O)N1c1cc(Cl)ccn1 (centres undefined),-3.94%,"0.00517 µM [falling, full curve, poor fit]","6.51 µM [falling, single point]"
CN1CCC(OC(=O)Cc2ccc(Cl)cc2)CC1,-19.7%,,"4.11 µM [falling, single point]"
COc1ccc(CNC(=O)C(C)n2nc(C)c3c(C)n(-c4ccc(C)cc4)nc3c2=O)cc1 (centres undefined),5.73%,,"29.1 µM [rising, single point]"
CC(C)C(NC(=O)c1ccc(Cl)cc1Cl)C(=O)NCCc1ccccn1 (centres undefined),10%,,
COc1cc(/C=N/NC(=O)Cc2csc(C)n2)ccc1OCC(C)C,39.6%,"6.51 µM [rising, single point]","6.51 µM [rising, single point]"
O=C(CSc1nnc2ccccn12)NCCN1C(=O)CSC1=O,-91.5%,"14.6 µM [falling, partial curve]","29.1 µM [falling, single point]"
CCOC(=O)Cn1c(N2CCCCCC2)nc2c1c(=O)[nH]c(=O)n2C,-6.51%,,"0.00731 µM [falling, full curve, poor fit]"
Cc1cccc(CC(C)NC(=O)c2cc(COc3ccc(C)c(C)c3)on2)n1 (centres undefined),-27.2%,,
COc1ccc2cc(C(C)C(=O)OC(C)C)ccc2c1 (centres undefined),-39.6%,"18.4 µM [falling, single point]","29.1 µM [falling, single point]"
O=C(c1cccc([N+](=O)[O-])c1)N1CCN(S(=O)(=O)N2CCCCC2)CC1,-11.7%,"0.058 µM [falling, full curve, poor fit]",
COc1ccc(-c2csc3[nH]c(=S)n(-c4ccccc4)c(=O)c23)cc1OC,-0.862%,,

# Complete entries as entered above:
# COCCn1c(=O)[nH]c2cc(C(=O)OC)ccc2c1=O as listed: cell number change: 16.6%; AC50 [1]: 0.58 µM [rising, partial curve, poor fit]
# CCCCN(CCCC)Cc1ccc(C(=O)NNC(=O)Nc2ccc(F)cc2)o1 as listed: cell number change: 35.9%; AC50 [2]: 0.103 µM [falling, partial curve, poor fit]

# From PubChem BioAssay AID2685 (National Center for Advancing Translational Sciences (NCATS), 2010)
